Primary screen of a compound library

Amino acid sequences for entries named in this document (tags omitted). Residues count along the entry.
UniProt A4I591, 1-473: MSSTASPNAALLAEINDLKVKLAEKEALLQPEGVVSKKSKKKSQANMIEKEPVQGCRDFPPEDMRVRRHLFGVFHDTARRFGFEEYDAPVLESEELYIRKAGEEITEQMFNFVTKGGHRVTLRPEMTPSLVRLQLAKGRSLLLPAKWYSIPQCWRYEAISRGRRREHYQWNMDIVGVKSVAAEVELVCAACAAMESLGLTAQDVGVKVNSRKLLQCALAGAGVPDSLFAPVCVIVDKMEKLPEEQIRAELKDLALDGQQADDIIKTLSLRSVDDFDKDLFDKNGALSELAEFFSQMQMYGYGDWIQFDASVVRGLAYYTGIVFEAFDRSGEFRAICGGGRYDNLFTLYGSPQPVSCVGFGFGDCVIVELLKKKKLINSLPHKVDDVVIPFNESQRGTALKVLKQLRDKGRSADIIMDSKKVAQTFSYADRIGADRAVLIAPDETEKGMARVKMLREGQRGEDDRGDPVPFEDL
UniProt P9WNZ1, whole entry: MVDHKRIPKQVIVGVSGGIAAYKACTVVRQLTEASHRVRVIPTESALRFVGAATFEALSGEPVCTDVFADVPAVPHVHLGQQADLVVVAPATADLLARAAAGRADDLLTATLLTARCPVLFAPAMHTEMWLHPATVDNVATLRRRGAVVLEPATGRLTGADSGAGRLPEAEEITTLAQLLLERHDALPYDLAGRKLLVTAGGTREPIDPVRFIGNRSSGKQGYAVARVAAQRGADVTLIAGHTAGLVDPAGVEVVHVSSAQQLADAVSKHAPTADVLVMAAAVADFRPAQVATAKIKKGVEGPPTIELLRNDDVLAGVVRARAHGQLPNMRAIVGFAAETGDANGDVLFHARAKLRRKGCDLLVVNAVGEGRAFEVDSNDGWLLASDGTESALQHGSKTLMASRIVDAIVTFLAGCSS

From ChEMBL document CHEMBL3988442, “University of Dundee, Small-Polar-MMV Screening Library” (2021).

LiHisRS: 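Enzyme assay of histidyl-tRNA synthetase; the read-out is not stated. Target: Histidine-tRNA ligase, Leishmania infantum (UniProt A4I591). Compounds at 30 µM. Higher reads as stronger inhibition (inferred: compounds with an IC50 in retests scored well above the rest). The assay is labelled LdHisRS but filed under L. infantum. About 69,000 compounds were tested under these conditions; 0.6% (about 410) showed 50% or more at least once.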
Leishmania in macrophages: 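Cell assay of Leishmania donovani living inside macrophages; the read-out is not stated. Tested at 30 µM. The record gives no direction; compounds that gave an IC50 in retests scored well above the rest, so higher reads as stronger inhibition. Of about 69,000 compounds tested this way, about 1,000 (1.5%) reached 50% or more in at least one test.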
CoaBC: 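Coenzyme A biosynthesis protein CoaBC, Mycobacterium tuberculosis (UniProt P9WNZ1). Enzyme assay of CoaBC with a phosphate dye (Biomol Green) read at 650 nm. Tested at 30 µM. Direction is inferred from only a few compounds that gave an IC50; most scored high, so higher reads as stronger inhibition. Most strong results did not repeat in a second test. About 67,000 compounds were tested under these conditions; 0.06% (about 40) showed 50% or more at least once.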

Values are the deposited “Percent Effect”, in %. The record does not define 0% and 100%; most values in the screen are far below 50% and negative numbers occur (in some assays of this library far below -100). The compounds are a random part of those screened. Two or more numbers in one place are separate tests of the same structure; such repeats can differ widely. A dash means the value is not listed here; it may have been measured.

| structure | LiHisRS | Leishmania in macrophages | CoaBC |
|---|---|---|---|
| `O=C(Nc1cccc(F)c1)N1CCC(CO)(Nc2ccccc2)CC1` | 19.54 | 18.76 | 8.501 |
| `c1cncc(CN2CCC(c3ccnc4nccn34)C2)c1` (stereo not drawn) | 5.755 | 34.47 | 2.632 |
| `COCc1cn(C[C@H]2C[C@@H]3CCN2C[C@@H]3C(=O)N2CCOCC2)nn1` | 4.054 | - | 12.14 |
| `CCN(Cc1nc2c(cnn2C)c(=O)[nH]1)c1cccc(Cl)c1` | 16 | 27.19 | 5.385 |
| `COCC(=O)N1CCN(S(=O)(=O)c2ccccc2)[C@H]2CS(=O)(=O)C[C@H]21` | 4.082 | - | -3.14 |
| `OC(CNCc1nnc2ccccn12)c1ccc2c(c1)OCO2` (stereo not drawn) | 25 | -3.493 | -7.818 |
| `Cc1cc(C(F)(F)F)nc(C2(C)CCCN2CC(N)=O)n1` (stereo not drawn) | -5.755 | 3.562 | 4.785 |
| `Cn1nc(C2CCN(C(=O)Cc3ccsc3)CC2)c2cccnc21` | -15.62 | - | 0.2451 |
| `O=C(NCCN1CCOCC1)c1cc(-c2ccccc2Cl)[nH]n1` | 30.14 | -6.582 | 4.545 |
| `[H][C@]12CCN(C(=O)NCc3ccccc3C)CC[C@@]1([H])S(=O)(=O)N(C)C2` | - | -8.532 | - |
| `CNc1oc(-c2ccc(S(=O)(=O)N(C)C)o2)nc1C#N` | 10.87 | -4.203 | -5.327 |
| `CS(=O)(=O)NCC1CCCN(C(=O)CCCc2ccccc2)C1` (stereo not drawn) | 7.339 | 9.174 | 4.092 |
| `[H][C@@]12CCCN1CCCN(c1cc(C)nc3c(C)c(C)nn13)C2` | - | 42.76 | - |
| `CN(Cc1cn2c(n1)CN(CC1CCOC1)CC2)Cc1ccco1.O=C(O)C(F)(F)F.O=C(O)C(F)(F)F` (stereo not drawn) | - | 49.18 | - |
| `CSCC[C@H](NC(=O)CCn1cc(C(C)=O)c2ccccc21)C(=O)O` | 16.3 | 15.33 | 2.058 |
| `COc1ccccc1OCc1cc(C(=O)N2C[C@H](O)[C@@H](N(C)C)C2)n[nH]1` | 24.04 | -16.24 | -2.954 |
| `CC(C)N1[C@H](CN2CCCC2)C[C@@H]2CN(C(=O)c3ccoc3)CC[C@@H]21` | 5.128 | - | - |
| `O=C(O)C(F)(F)F.[H][C@@]12OCCN(C(=O)C3CCC3)[C@@]1([H])CC[C@H]2OCCCn1cccn1` | - | -2.716 | - |
| `CC(C)n1[nH]c(=O)c2c1NC(=O)CC2c1cccc(O)c1` (stereo not drawn) | 15.58 | 20.28 | 0.5109 |
| `O=C(NCCCn1ccnc1)N1CCCC1c1ccncc1` (stereo not drawn) | 0.9709 | 5.885 | -22.77 |
| `O=C(CC1CC1)N1CCO[C@H]2[C@H](OCCCn3cccn3)CC[C@@H]21` | 22.22 | - | -14.67 |
| `CC(=O)N1CCC2(CCCN(Cc3ccc(Cl)c(C(F)(F)F)c3)C2)C1` (stereo not drawn) | 21.57 | 18.15 | -2.445 |
| `CC(C)(C)c1coc([C@@H]2COCCN2Cc2cnc3ccccc3c2)n1` | 8.108 | 21.31 | 0.1965 |
| `O=C(NCCNc1ccccn1)NC1CCCC1` | 14.29 | 18.86 | -0.6329 |
| `Cc1cc(-c2nn(C)c(Cl)c2CN2CCC3(CC2)[C@H](O)C[C@@H]3O)no1` | 16.67 | 1.487 | 6.746 |
| `O=S1(=O)NC(C2CCN(Cc3ccccn3)CC2)Nc2ccccc21` (stereo not drawn) | 6 | 17.66 | 0.1239 |
| `COCC(=O)N1CCC(C(=O)Nc2ccc(S(N)(=O)=O)cc2)CC1` | 0 | 11.34 | 3.069 |
| `NC(=O)c1ccc2c(c1)nc1n2CCN(Cc2cccnc2)C1` | 10 | 21.3 | 5.443 |
| `CN(C)c1cc(C2CCCN(Cc3cnn(C)c3)C2)ccn1` (stereo not drawn) | 7.246 | 32.37 | -8.673 |
| `O=C(c1cccnc1O)N1CCCC2(C=Cc3ccccc3O2)CC1` (stereo not drawn) | 12.5 | 16.03 | 8.894 |
| `CS(=O)(=O)N1CCO[C@@H]2CCN(Cc3ccncc3)CC[C@H]21` | 1.887 | - | 2.683 |
| `CN(C)Cc1nnc(C2CCN(c3ncccc3Cl)CC2)n1C1CC1` | -6.061 | 13.24 | -0.1972 |
| `CS(=O)(=O)c1cccc(C(N)c2ccc(F)cc2)c1` (stereo not drawn) | 1.786 | 40.11 | 1.136 |
| `Cc1noc(C2CCCN2C(=O)C2CCC2)n1` (stereo not drawn) | 7.246 | 8.728 and -0.4684 | 0.7282 |
| `CNC(=O)c1cccc(CN2CCC(N(C)Cc3noc(C)n3)C2)c1` (stereo not drawn) | 2.679 | -22.53 | 0 |
| `CC(C(=O)NCc1ccc(N2CCN(C)CC2)nc1)n1cccn1` (stereo not drawn) | 17.86 | 23.83 | 7.478 |
| `CC(C)c1ccc(OCCC(=O)N2CCC(CC(N)=O)CC2)cc1` | 26.4 | 25.69 | 5.319 |
| `O=C1CNc2ncnc(NCc3cccs3)c2N1` | 22.12 | -17.9 | 1.636 |
| `O=C(NCCNc1ncccn1)N1CCCC1` | 9.649 | 17.88 | 1.513 |
| `CCn1cncc1CN1CCN(CC2(c3ccc(C)cc3)CC2)CC1.Cl` | - | -15.8 | - |
| `Cc1nc(CN2CCC(N(C)Cc3noc(C(C)C)n3)C2)oc1C` (stereo not drawn) | 3.54 | 4.117 | 7.233 |
| `O=C(CCC1CCN(Cc2ncc[nH]2)CC1)Nc1ccccc1Cl` | -1.905 | -37.6 | -50.44 |
| `O=C(O)C(F)(F)F.O=C(O)C(F)(F)F.[H][C@@]12CCC(=O)N(c3cnn(C)c3)[C@]1([H])CCN2CCc1ccccc1` | - | -1.558 | - |
| `[H][C@@]12CCN(Cc3ccc(C)o3)C[C@@]1([H])[C@H](C(=O)NCC1CC1)CCO2` | - | 9.447 | - |
| `CC(=O)N1CCC(NC(=O)c2cc(S(N)(=O)=O)ccc2C)CC1` | 20.41 | -1.924 | 2.81 |
| `CN(C)CCN(C)C1CCCN(C(=O)c2ccc(Cn3ccnc3)o2)C1` (stereo not drawn) | 9.211 | 14.57 | 0.9677 |
| `CO[C@H]1CCN(C(=O)c2cc(C)on2)[C@H]1Cc1ccncc1` | 15.38 | -4.885 | 2.445 |
| `CNc1nc(N2C[C@H](NC(=O)CCOC)[C@@H](C3CC3)C2)nc2c1CCC2` | 7.143 | 20.37 | 1.229 |

Some entries from above, unchanged:

- CC(C)c1ccc(OCCC(=O)N2CCC(CC(N)=O)CC2)cc1 : LiHisRS: 26.4%; Leishmania in macrophages: 25.69%; CoaBC: 5.319%
- CN(C)c1cc(C2CCCN(Cc3cnn(C)c3)C2)ccn1 (stereo not drawn) : LiHisRS: 7.246%; Leishmania in macrophages: 32.37%; CoaBC: -8.673%
- CNc1nc(N2C[C@H](NC(=O)CCOC)[C@@H](C3CC3)C2)nc2c1CCC2 : LiHisRS: 7.143%; Leishmania in macrophages: 20.37%; CoaBC: 1.229%
- CN(Cc1cn2c(n1)CN(CC1CCOC1)CC2)Cc1ccco1.O=C(O)C(F)(F)F.O=C(O)C(F)(F)F (stereo not drawn) : Leishmania in macrophages: 49.18%
- O=C(O)C(F)(F)F.[H][C@@]12OCCN(C(=O)C3CCC3)[C@@]1([H])CC[C@H]2OCCCn1cccn1 : Leishmania in macrophages: -2.716%
- CCn1cncc1CN1CCN(CC2(c3ccc(C)cc3)CC2)CC1.Cl : Leishmania in macrophages: -15.8%